{"source": "PubChem BioAssay AID652272 – Drosophila RNAi Screening Center – 2013", "test": "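Genes whose knock-down decreases or increases Hedgehog reporter output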 (primary screen)", "cells": "Drosophila clone 8 (Cl8) cells", "reagent": "long dsRNA against Drosophila genes", "measurement": "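Firefly light from a Hedgehog-responsive ptc promoter reporter and Renilla reference light, both read on a plate reader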", "direction": "firefly Hh reporter signal: higher = more ptc reporter light; Renilla reference signal: higher = more Renilla control light", "call rule": "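Called a hit if the two-replicate mean z-score lies below -2 or above +3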", "meaning of the calls": "active = hit: reporter lowered or raised; inactive = not a hit", "note": "The deposit covers about 21,000 reagents; below is a random part of those with a known target gene and a result. In the full data, 503 (2.4%) are marked active. 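Raw plate light values, not normalised; calls rest on replicate z-scores that were not deposited; hits include reporter decreases as well as increases.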 The record does not give: the amount of reagent, the time to read-out."}
{"gene": "CG1571", "dsRNA": "DRSC18068", "firefly Hh reporter signal, replicate 1": 89131, "firefly Hh reporter signal, replicate 2": 2.23e5, "Renilla reference signal, replicate 1": 3681, "Renilla reference signal, replicate 2": 8573, "outcome": "inactive"}
{"gene": "CG42240", "dsRNA": "DRSC18097", "firefly Hh reporter signal, replicate 1": 1.08e5, "firefly Hh reporter signal, replicate 2": 54140, "Renilla reference signal, replicate 1": 2476, "Renilla reference signal, replicate 2": 1386, "outcome": "inactive"}
{"gene": "CG2224", "dsRNA": "DRSC15429", "firefly Hh reporter signal, replicate 1": 1.04e5, "firefly Hh reporter signal, replicate 2": 1.04e5, "Renilla reference signal, replicate 1": 4002, "Renilla reference signal, replicate 2": 3223, "outcome": "inactive"}
{"gene": "Wbp2", "dsRNA": "DRSC09821", "firefly Hh reporter signal, replicate 1": 47184, "firefly Hh reporter signal, replicate 2": 52425, "Renilla reference signal, replicate 1": 2332, "Renilla reference signal, replicate 2": 2208, "outcome": "inactive"}
{"gene": "CG17625", "dsRNA": "DRSC15249", "firefly Hh reporter signal, replicate 1": 5.11e5, "firefly Hh reporter signal, replicate 2": 1.19e5, "Renilla reference signal, replicate 1": 24389, "Renilla reference signal, replicate 2": 3542, "outcome": "inactive"}
{"gene": "Ubc87F", "dsRNA": "DRSC16513", "firefly Hh reporter signal, replicate 1": 91490, "firefly Hh reporter signal, replicate 2": 1.39e5, "Renilla reference signal, replicate 1": 3937, "Renilla reference signal, replicate 2": 4201, "outcome": "inactive"}
{"gene": "CG3769", "dsRNA": "DRSC02723", "firefly Hh reporter signal, replicate 1": 1.07e5, "firefly Hh reporter signal, replicate 2": 43908, "Renilla reference signal, replicate 1": 2761, "Renilla reference signal, replicate 2": 4073, "outcome": "inactive"}
{"gene": "CAH6", "dsRNA": "DRSC15505", "firefly Hh reporter signal, replicate 1": 1.28e5, "firefly Hh reporter signal, replicate 2": 85237, "Renilla reference signal, replicate 1": 4576, "Renilla reference signal, replicate 2": 2497, "outcome": "inactive"}
{"gene": "CG31883", "dsRNA": "DRSC02561", "firefly Hh reporter signal, replicate 1": 1.06e5, "firefly Hh reporter signal, replicate 2": 1.04e5, "Renilla reference signal, replicate 1": 5050, "Renilla reference signal, replicate 2": 4407, "outcome": "inactive"}
{"gene": "GstO2", "dsRNA": "DRSC10691", "firefly Hh reporter signal, replicate 1": 77228, "firefly Hh reporter signal, replicate 2": 52465, "Renilla reference signal, replicate 1": 3496, "Renilla reference signal, replicate 2": 2352, "outcome": "inactive"}
{"gene": "Pepck1", "dsRNA": "DRSC07505", "firefly Hh reporter signal, replicate 1": 1.62e5, "firefly Hh reporter signal, replicate 2": 80348, "Renilla reference signal, replicate 1": 4560, "Renilla reference signal, replicate 2": 6368, "outcome": "inactive"}
{"gene": "CG14777", "dsRNA": "DRSC18563", "firefly Hh reporter signal, replicate 1": 1.04e5, "firefly Hh reporter signal, replicate 2": 3.01e5, "Renilla reference signal, replicate 1": 4076, "Renilla reference signal, replicate 2": 10823, "outcome": "inactive"}
{"gene": "cav", "dsRNA": "DRSC15995", "firefly Hh reporter signal, replicate 1": 80185, "firefly Hh reporter signal, replicate 2": 82179, "Renilla reference signal, replicate 1": 3930, "Renilla reference signal, replicate 2": 3319, "outcome": "inactive"}
{"gene": "Mink", "dsRNA": "DRSC14291", "firefly Hh reporter signal, replicate 1": 75664, "firefly Hh reporter signal, replicate 2": 79121, "Renilla reference signal, replicate 1": 2893, "Renilla reference signal, replicate 2": 2757, "outcome": "inactive"}
{"gene": "link", "dsRNA": "DRSC06368", "firefly Hh reporter signal, replicate 1": 46312, "firefly Hh reporter signal, replicate 2": 32001, "Renilla reference signal, replicate 1": 1787, "Renilla reference signal, replicate 2": 3233, "outcome": "active"}
{"gene": "CG12643", "dsRNA": "DRSC17849", "firefly Hh reporter signal, replicate 1": 71492, "firefly Hh reporter signal, replicate 2": 1.76e5, "Renilla reference signal, replicate 1": 2507, "Renilla reference signal, replicate 2": 6531, "outcome": "inactive"}
{"gene": "Ppat-Dpck", "dsRNA": "DRSC09744", "firefly Hh reporter signal, replicate 1": 33639, "firefly Hh reporter signal, replicate 2": 33482, "Renilla reference signal, replicate 1": 3984, "Renilla reference signal, replicate 2": 2013, "outcome": "inactive"}
{"gene": "spict", "dsRNA": "DRSC02157", "firefly Hh reporter signal, replicate 1": 1.00e5, "firefly Hh reporter signal, replicate 2": 55619, "Renilla reference signal, replicate 1": 4068, "Renilla reference signal, replicate 2": 2217, "outcome": "inactive"}
{"gene": "CG7201", "dsRNA": "DRSC10786", "firefly Hh reporter signal, replicate 1": 49604, "firefly Hh reporter signal, replicate 2": 63754, "Renilla reference signal, replicate 1": 5245, "Renilla reference signal, replicate 2": 4144, "outcome": "inactive"}
{"gene": "ZC3H3", "dsRNA": "DRSC10696", "firefly Hh reporter signal, replicate 1": 3399, "firefly Hh reporter signal, replicate 2": 17248, "Renilla reference signal, replicate 1": 874, "Renilla reference signal, replicate 2": 1671, "outcome": "active"}
{"gene": "fra", "dsRNA": "DRSC07621", "firefly Hh reporter signal, replicate 1": 65734, "firefly Hh reporter signal, replicate 2": 41000, "Renilla reference signal, replicate 1": 1664, "Renilla reference signal, replicate 2": 3289, "outcome": "inactive"}
{"gene": "CG7841", "dsRNA": "DRSC10922", "firefly Hh reporter signal, replicate 1": 1.05e5, "Renilla reference signal, replicate 1": 4624, "Renilla reference signal, replicate 2": 2736, "outcome": "inactive"}
{"gene": "CG10257", "dsRNA": "DRSC05985", "firefly Hh reporter signal, replicate 1": 76012, "firefly Hh reporter signal, replicate 2": 45288, "Renilla reference signal, replicate 1": 1418, "Renilla reference signal, replicate 2": 3401, "outcome": "inactive"}
{"gene": "CG43123", "dsRNA": "DRSC05049", "firefly Hh reporter signal, replicate 1": 1.11e5, "firefly Hh reporter signal, replicate 2": 2.24e5, "Renilla reference signal, replicate 1": 3104, "Renilla reference signal, replicate 2": 10273, "outcome": "inactive"}
{"gene": "CG8750", "dsRNA": "DRSC11037", "firefly Hh reporter signal, replicate 1": 48464, "firefly Hh reporter signal, replicate 2": 50036, "firefly Hh reporter signal, replicate 3": 67377, "Renilla reference signal, replicate 1": 3570, "Renilla reference signal, replicate 2": 3653, "outcome": "inactive"}
{"gene": "CG4766", "dsRNA": "DRSC17736", "firefly Hh reporter signal, replicate 1": 76154, "firefly Hh reporter signal, replicate 2": 2.20e5, "Renilla reference signal, replicate 1": 2756, "Renilla reference signal, replicate 2": 8981, "outcome": "inactive"}
{"gene": "CG15196", "dsRNA": "DRSC19643", "firefly Hh reporter signal, replicate 1": 85280, "firefly Hh reporter signal, replicate 2": 3.09e5, "Renilla reference signal, replicate 1": 2985, "Renilla reference signal, replicate 2": 11008, "outcome": "inactive"}

Just “Renilla reference signal, replicate 2” (2 entries from above):
fra [DRSC07621]: 3289
CG7841 [DRSC10922]: 2736
